Measurements as given in article PMC10448178.
For some assays here: A weaker result is weaker than the reference pair of the same experiment. For some assays here: Protein sequences can lack the tags named with them. For some assays here: Construct, isoform or probe ends are uncertain for at least one entry. For some assays here: At least one verdict rests on a figure or table, not on a statement of the authors.

Assays:
MntR (Bacillus subtilis) = biological target: T1, MntR (Bacillus subtilis) (UniProt P54512); experiment: EMSA; settings: 10 mM Tris-HCl pH 7.5, 43 mM NaCl, 1 mM MnCl2, 1 mM DTT, 5% glycerol, 1 ug poly[dI-dC] per 14 ul, 23 C 15 min, 5% PAGE in 40 mM Tris-acetate at 4 C, recombinant protein, residues 1-142, label: biotin, probe letters rebuilt from the primers and the genome
T1 sequence (looked up): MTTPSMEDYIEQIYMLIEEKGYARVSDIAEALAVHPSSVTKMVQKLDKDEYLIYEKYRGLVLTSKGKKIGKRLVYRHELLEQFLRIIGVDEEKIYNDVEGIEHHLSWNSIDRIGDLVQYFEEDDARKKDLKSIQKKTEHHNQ

AhrC (Bacillus subtilis) = biological target: T2, AhrC (Bacillus subtilis) (UniProt P17893); experiment: EMSA; settings: 1 mM Mn2+; 10 mM Tris-HCl pH 7.5, 43 mM NaCl, 1 mM MnCl2, 1 mM DTT, 5% glycerol, 1 ug poly[dI-dC] per 14 ul, 23 C 15 min; 5% PAGE in 40 mM Tris-acetate at 4 C; recombinant protein; residues 1-149; label: biotin; probe letters rebuilt from the primers and the genome
T2 sequence: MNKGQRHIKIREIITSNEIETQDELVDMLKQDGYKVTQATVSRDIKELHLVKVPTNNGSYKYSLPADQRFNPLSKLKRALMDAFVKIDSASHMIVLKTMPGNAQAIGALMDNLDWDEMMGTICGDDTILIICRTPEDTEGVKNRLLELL

Sequence	binding result (MntR (Bacillus subtilis); 1 mM Mn2+)	binding result (AhrC (Bacillus subtilis))	further results
ATCGAATTCGGCTTTACAATGGAGAATGTGATGGCGATGGGCGACAGCCTTAATGACATTGCGATGATCAAAGAAGCGGGTCTTGGCGTCGCAATGGGCAATGCGCAAGACATCGTAAAAGAAACGGCTGATTATATCACGGATACAAATATTGAGGATGGTGTCGCTAAAGCGATTCGCCATTGGGTACTATAAAAAAAGAGAGTCCTAAGATGGACTCTCTTTTTTAGTTTGGCAGGTTTTATTCTGGGACCATGGTAGGTTTTCTGACAAAAGTATTTCACAAACTGATATGATTCACTTATAATGAAATAAAGTTCAAAAATTCGGAATAGTCGTTCCGAATTTCGGGACAATAAATGACATAAAGCATATCGTTTGCTTTGGCAGGAGGGATTCTGTGTTTCAGATTGATTTAAACTGTGATTTAGGAGAAAGCTTCGG (double strand) [PpxpA (Fig 5A)]	binds	binds	–
ATGAAGCTTGTCTCACCTGAATTCTGTTTGTTTTTGCCGTACAACAAAGAGTTTCCTTAAGGCAAATTATTTTATCTACATCATATGACCATCCCGGTTTCTTGTCAACCGAAAATGTTCAAAATACACTTCTGAATTTTTCCCTGTTATGTAACATGATATGTAGGGATTCGTGATAAGGTCCCATATAAAAAGACATCGTTTCATTTCGAAACGATGCCTCCTGTATCTAATGAGTCTAGGCTTCCTTCCGCAGCCCGCGGAATATAAGGCCCAGCAAGAACACGAAGATGGCTGCCCCGATGATGGCCGGGA (double strand) [PmntH Wt]	–	binds	binding result (MntR (Bacillus subtilis); 1 mM Mn2+, two bands): binds
ATGGGATCCATTATGCTCGGGGGCTTTCTCGCTGACTTTTTCACAGTGCAAATGATTTTTTATGCAAGCTCTATTCTATATTTTTTGAGTGGATTGATGATGATGAAAACAGGCTGACGCGGTCAGCCTGTTTTTTTATGCGGCTGAAATGCGGCACCGCATCAACGTTTTTGTGCTGGAGTCGTGCTGATTTTTTTTGAGCGGAATTCCCATTGAACAGAAAATTTATAAATGAATAAAAATATTAAATATACGATTGAATTAATTTTTATTCATGTTATAATGTTAAATAATTTCACAAAGACCAAGAGGG (double strand) [PargC]	–	binds	binding result (MntR (Bacillus subtilis); with Mn2+): binds
ATGGGATCCATTTCTCCTCCTCTTTGCCATCAATGTCCGATTGTTTTATCTTATGTTGTCAGTTCTTAGACATGTGACATTAAATTAGCCAAAAGCATGTTTTATTTACACAGGACAAAAAGTTTCCCTCATGCAAAATTATCGCGTTTGGCCATTTTTGTCAAGCTGATTTACATAAAAAAACCGGCTGGGTCAGCAGCCGGTCCAAACGAGAAGGGATGTATTCAACGAACACTTTTACTGTAACAGCACAGTGTCATTTATTCAAAATAGCAAAATGCTTTTTTCTTAACCATGCTGTGTGAA (double strand) [PmntA]	binds	binds	–
GCAACTTTTCTGCTTATTTGTTCTCTTTCACTTGCCATTTTTTCCTCCTATAAAACTGCACAAAAAAATAGGAGTGCTCTATATACGCTCTCCGTATCCTTTCCTGTGTAATCACTTTGTTTATCATACCAATTCAATTTCGAGTGGGTCTATAGCAACGTTGTTTCCTGTTTACTAATAAATAAGGTGACAGAAAAAAAGTTGGAGCTATGCTAAAAAGGTCATACAGCAAACAAATGAGTTCTTATGTAACAACAGTGATGATTCGCTATTAAAATGCTGCCGTCAGTGAAAAATTTCCACCTAATTTTCAAAAACCTATTGACATGAGAAGATCTGTATTTTACTATTATCTCATATTCAAGATATTTTAATTTGAGATATTTGGTCGGAAAGATCAGCGATCAAGCGCAACTCTAAGTGTTCAATCGTTGTCAGTTCTTTTACACAATATTCAATATGATTTTTTATAACATAATATCTCGAATTCGAG (double strand) [PmneP -386/+118]	–	–	binding result (MntR (Bacillus subtilis); 1 mM Mn2+, complete shift at 0.1 uM): binds
TCCTATAAAACTGCACAAAAAAATAGGAGTGCTCTATATACGCTCTCCGTATCCTTTCCTGTGTAATCACTTTGTTTATCATACCAATTCAATTTCGAGTGGGTCTATAGCAACGTTGTTTCCTGTTTACTAATAAATAAGGTGACAGAAAAAAAGTTGGAGCTATGCTAAAAAGGTCATACAGCAAACAAATGAGTTCTTATGTAACAACAGTGATGATTCGCTATTAAAATGCTGCCGTCAGTGAAAAATTTCCACCTAATTTTCAAAAACCTATTGACATGAGAAGATCTGTATTTTACTATTATCTCATATTCAAGATATTTTAATTTGAGATATTTGGTCGGAAAGATCAGCGATCAAGCGCAACTCTAAGTGTTCAATCGTTGTCAGTTCTTTTACACAATATTCAATATGATTTTTTATAACATAATATCTCGAATTCGAG (double strand) [PmneP 3' deletion]	–	–	binding result (MntR (Bacillus subtilis); 1 mM Mn2+, scarce binding): binds more weakly
TTTAGTTTGGCAGGTTTTATTCTGGGACCATGGTAGGTTTTCTGACAAAAGTATTTCACAAACTGATATGATTCACTTATAATGAAATAAAGTTCAAAAATTCGGAAGCTTCCG (double strand) [PpxpA probe 5]	binds	–	–
